The list shows only some results of the screen, not a fair sample: it gathers tests that were run many times, whatever their T/C, doses with no T/C, and many T/C values between a quarter and a half above the control. Other doses and runs of a compound stand elsewhere. T/C is the treated group as % of the vehicle group. Some doses have a count of surviving animals in place of a T/C: the source files T/C as zero there, which appears to mark a toxic dose or a test without result, not a measured value. Some doses without a T/C left all or most animals alive at the check, yet need not have been tolerated: the source hardly ever lists a survival T/C far under the control, and the zero likely stands for such cases as well. Counts of survivors are from the toxicity check (mostly the fifth day) where no day follows; animals may have died later. Schedule codes are those of the source, taken here to give the interval after Q, in days (D) or hours (H), and the number of doses after X. Some doses were run more than once; the results are listed from low to high. For survival time, the PubChem record calls one and a half times the control and up active, and a quarter to a half above the control has no call in these data; cut-offs in other NCI protocols can differ. Some T/C values are followed by the survivors on the day toxicity was checked, most often the fifth; without a count, all were alive then.

The subject of this test is AKR/Lw mice, AKR lymphoma ip, median survival T/C. As to the kind of experiment: NCI In Vivo Anticancer Drug Screen. Data for tumor model Lymphoma AKR (Transplanted) (intraperitoneal) in AKR/Lw mice. Particulars: T/C endpoint: median survival time, higher T/C = longer survival. As to the method: The antitumor activity of compounds was measured in mice bearing transplantable tumors. Survival or tumor size were measured and the results are expressed as the measurement made in the treated group (T) divided by the measurement made in the vehicle treated control group (C). The tumor model used in this assay is Lymphoma AKR (Transplanted) (intraperitoneal) in AKR/Lw mice

[1] abbreviates: dose: 0.12 mg/kg/injection, schedule: Q04DX003 (ip), vehicle: saline.
The mark [2] stands for this setting: dose: 0.25 mg/kg/injection, schedule: Q01DX001 (ip), vehicle: saline.
[3] abbreviates: dose: 0.25 mg/kg/injection, schedule: Q04DX003 (ip), vehicle: saline.
The mark [4] stands for this setting: dose: 0.5 mg/kg/injection, schedule: Q01DX001 (ip), vehicle: saline.
The mark [5] stands for this setting: dose: 0.5 mg/kg/injection, schedule: Q04DX003 (ip), vehicle: saline.
Where [6] appears, read: dose: 1.0 mg/kg/injection, schedule: Q01DX001 (ip), vehicle: saline.
Setting [7] is: dose: 5.0 micrograms/kg/injection, schedule: Q01DX009 (ip), vehicle: saline.
Setting [8] is: dose: 10.0 micrograms/kg/injection, schedule: Q01DX009 (ip), vehicle: saline.

As for `CC[C@]1(O)C[C@H]2CN(CCc3c([nH]c4ccccc34)[C@@](C(=O)OC)(c3cc4c(cc3OC)N(C=O)[C@H]3[C@@](O)(C(=O)OC)[C@H](OC(C)=O)[C@]5(CC)C=CCN6CC[C@]43[C@@H]65)C2)C1`, the survivor count by setting is: (dose: 0.05 mg/kg/injection, schedule: Q01DX009 (ip), vehicle: saline) 10 of 10; (dose: 0.06 mg/kg/injection, schedule: Q04DX003 (ip), vehicle: saline) 7 of 10; (dose: 0.1 mg/kg/injection, schedule: Q01DX009 (ip), vehicle: saline) 9 of 10; (dose: 0.12 mg/kg/injection, schedule: Q01DX009 (ip), vehicle: saline) 7 of 10; under setting [1], 10 of 10; (dose: 0.2 mg/kg/injection, schedule: Q01DX009 (ip), vehicle: saline) 10 of 10. The survivor count under setting [2] is 6 of 10; the survivor count (dose: 0.25 mg/kg/injection, schedule: Q01DX009 (ip), vehicle: saline) was 3 of 10; the survivor count under setting [3] was 8 of 10; the survivor count under setting [4] is recorded as 4 of 10; the survivor count (dose: 0.5 mg/kg/injection, schedule: Q01DX009 (ip), vehicle: saline) is 0 of 10 and 10 of 10; the survivor count under setting [5] is 8 of 10 and 10 of 10. Besides, the survivor count was 9 of 10 and 10 of 10 (dose: 0.75 mg/kg/injection, schedule: Q04DX003 (ip), vehicle: saline); 8 of 10 under setting [6]; 3 of 10 (dose: 1.0 mg/kg/injection, schedule: Q04DX003 (ip), vehicle: saline); 6 of 10 (dose: 1.0 mg/kg/injection, schedule: Q10DX002 (ip), vehicle: saline); 9 of 10 (dose: 1.5 mg/kg/injection, schedule: Q04DX003 (ip), vehicle: saline); 9 of 10 (dose: 1.5 mg/kg/injection, schedule: Q10DX002 (ip), vehicle: saline). Further, the survivor count by setting is: (dose: 2.0 mg/kg/injection, schedule: Q01DX001 (ip), vehicle: saline) 3 of 10, 4 of 10, 5 of 10; (dose: 2.0 mg/kg/injection, schedule: Q04DX003 (ip), vehicle: saline) 4 of 10 and 10 of 10; (dose: 3.0 mg/kg/injection, schedule: Q04DX003 (ip), vehicle: saline) 5 of 10; (dose: 4.0 mg/kg/injection, schedule: Q04DX003 (ip), vehicle: saline) 10 of 10; (dose: 0.6 micrograms/kg/injection, schedule: Q01DX009 (ip), vehicle: saline) 10 of 10; (dose: 1.2 micrograms/kg/injection, schedule: Q01DX009 (ip), vehicle: saline) 9 of 10. Also, the survivor count is 10 of 10 (dose: 1.5 micrograms/kg/injection, schedule: Q01DX009 (ip), vehicle: saline); 5 of 10 and 6 of 10 (dose: 2.5 micrograms/kg/injection, schedule: Q01DX009 (ip), vehicle: saline); 8 of 10 and 10 of 10 (dose: 3.0 micrograms/kg/injection, schedule: Q01DX009 (ip), vehicle: saline); 1 of 10 under setting [7]; 10 of 10 (dose: 6.0 micrograms/kg/injection, schedule: Q01DX009 (ip), vehicle: saline); 0 of 10 under setting [8]. In addition, the survivor count runs as follows: (dose: 12.0 micrograms/kg/injection, schedule: Q01DX009 (ip), vehicle: saline) 10 of 10; (dose: 20.0 micrograms/kg/injection, schedule: Q01DX009 (ip), vehicle: saline) 10 of 10; (dose: 25.0 micrograms/kg/injection, schedule: Q01DX009 (ip), vehicle: saline) 10 of 10; (dose: 50.0 micrograms/kg/injection, schedule: Q01DX009 (ip), vehicle: saline) 9 of 10. Further, the T/C is 125 % of control (dose: 0.05 mg/kg/injection, schedule: Q10DX002 (ip), vehicle: saline, evaluated on day 5); 125 % of control [9 of 10 alive] (dose: 0.05 mg/kg/injection, schedule: Q10DX002 (ip), vehicle: saline, evaluated on day 60); 131 % of control (dose: 0.1 mg/kg/injection, schedule: Q10DX002 (ip), vehicle: saline, evaluated on day 5); 131 % of control [8 of 10 alive] (dose: 0.1 mg/kg/injection, schedule: Q10DX002 (ip), vehicle: saline, evaluated on day 60); 126 % of control (dose: 0.12 mg/kg/injection, schedule: Q04DX002 (ip), vehicle: saline, evaluated on day 5); 126 % of control (dose: 0.12 mg/kg/injection, schedule: Q04DX002 (ip), vehicle: saline, evaluated on day 60). The T/C under setting [1] is 100, 111, 117 [9 of 10 alive], 118, 131, 134 [9 of 10 alive], 151, 196 % of control; the T/C under setting [2] is 106 [9 of 10 alive], 115, 119, 120 % of control; the T/C (dose: 0.25 mg/kg/injection, schedule: Q04DX002 (ip), vehicle: saline, evaluated on day 5) was 125 % of control; the T/C (dose: 0.25 mg/kg/injection, schedule: Q04DX002 (ip), vehicle: saline, evaluated on day 60) was 125 % of control [9 of 10 alive]; the T/C (dose: 0.25 mg/kg/injection, schedule: Q04DX002 (ip), vehicle: water, evaluated on day 4) was 131 % of control; the T/C (dose: 0.25 mg/kg/injection, schedule: Q04DX002 (ip), vehicle: water, evaluated on day 60) was 125 % of control. In addition, the T/C under setting [3] was 87 [8 of 10 alive], 94, 105, 107, 127, 128, 130 [8 of 10 alive], 186, 206 % of control; the T/C (dose: 0.25 mg/kg/injection, schedule: Q10DX002 (ip), vehicle: saline, evaluated on day 5) was 141 % of control; the T/C (dose: 0.25 mg/kg/injection, schedule: Q10DX002 (ip), vehicle: saline, evaluated on day 60) is 141 % of control; the T/C under setting [4] was 108 [9 of 10 alive], 111, 118, 123, 125, 130, 132, 132 % of control [9 of 10 alive]; the T/C under setting [5] is 90, 92, 100 [9 of 10 alive], 113, 141, 253 % of control; the T/C (dose: 0.5 mg/kg/injection, schedule: Q10DX002 (ip), vehicle: saline, evaluated on day 5) is 131 % of control. Also, the T/C reads like this: (dose: 0.5 mg/kg/injection, schedule: Q10DX002 (ip), vehicle: saline, evaluated on day 60) 131 % of control; under setting [6], 123 [8 of 10 alive], 139, 141, 143, 161 % of control; (dose: 1.5 mg/kg/injection, schedule: Q01DX001 (ip), vehicle: saline) 141 [9 of 10 alive] and 146 % of control; under setting [7], 93 [8 of 10 alive], 114, 121, 135 % of control; under setting [8], 88 [9 of 10 alive], 90 [8 of 10 alive], 94 [9 of 10 alive], 106 % of control.
With `COc1cc([C@@H]2c3cc4c(cc3[C@H](O)[C@H]3COC(=O)[C@@H]23)OCO4)cc(OC)c1OC`, the survivor count reads like this: (dose: 24.0 mg/kg/injection, schedule: Q01DX009 (ip), vehicle: Klucel (hydroxypropylcellulose) (HPC)) 10 of 10; (dose: 48.0 mg/kg/injection, schedule: Q01DX009 (ip), vehicle: Klucel (hydroxypropylcellulose) (HPC)) 10 of 10; (dose: 96.0 mg/kg/injection, schedule: Q01DX009 (ip), vehicle: Klucel (hydroxypropylcellulose) (HPC)) 5 of 10.
As to `CN(CCOc1ccccc1O)CCOc1ccccc1O`, the survivor count (dose: 400.0 mg/kg/injection, schedule: Q04DX003 (ip), vehicle: Klucel (hydroxypropylcellulose) (HPC)) is given as 8 of 10.
For the compound `COc1cccc2c1C(=O)c1c(O)c3c(c(O)c1C2=O)C[C@@](O)(C(C)=O)C[C@@H]3OC1CC(N)C(O)C(C)O1` (stereo partly drawn), the T/C by setting is: (dose: 0.1 mg/kg/injection, schedule: Q01DX015 (ip), vehicle: saline) 128 % of control [8 of 10 alive]; (dose: 0.4 mg/kg/injection, schedule: Q01DX010 (ip), vehicle: saline) 138 % of control.

Source of the values: PubChem BioAssay AID190 (DTP/NCI, 2004).
